Among the test systems are OR14L1 clone 1029; OR1A1 P285S clone 1531; OR1A1 R128H clone 1528; OR1A1 V233M clone 1287; OR1A1 V233M clone 1530; OR1A1 clone 1529; OR1A2 clone 1158; OR1C1 clone 1044; OR1D2 clone 1376; OR1D5 clone 1289; OR1D5 clone 1692; OR1E1 clone 1257; OR1E1 clone 1546; OR1E2 C27R clone 1447; OR1E2 clone 1517; OR1F1 F75S clone 1281; OR1F12 clone 1694; OR1G1 clone 1488; OR1J1 clone 1696.

Holding throughout (assay): odorant receptor activation (CRE luciferase / Renilla) (fold of no-odor wells); higher = more activation
Holding throughout (conditions): 100 µM

The test system of assay [1] is OR1I1 P139R/Y252S clone 1468.

SMILES strings stand for the structures. Where “and” joins values, the source holds several entries; their conditions need not be identical. Equal values may be shown once. The list shows a part of the results. Single wells; the ratio to wells without odorant was worked out here, and repeats agree poorly.

On to `CC(C)=CCCC(C)=CC=O` [citral], for which the odorant receptor activation in the assay with OR14L1 clone 1029 is 1.09; with OR1A1 P285S clone 1531, 2.19; in the assay on OR1A1 R128H clone 1528, 1.53; with OR1A1 V233M clone 1287, 4.54 and 2.13; in the assay with OR1A1 V233M clone 1530 it was 2.8; with OR1A1 clone 1529, 2.44. The odorant receptor activation came to 0.894 in the assay on OR1A2 clone 1158; 1.15 in the assay on OR1C1 clone 1044; 0.234 with OR1D2 clone 1376; 1.16 with OR1D5 clone 1289; 1.16 with OR1D5 clone 1692; 1.12 in the assay on OR1E1 clone 1257. In addition, the odorant receptor activation was determined as 0.776 in the assay on OR1E1 clone 1546; 0.14 with OR1E2 C27R clone 1447; 0.911 in the assay on OR1E2 clone 1517; 1.4 in the assay on OR1F1 F75S clone 1281; 0.011 with OR1F12 clone 1694; 0.999 with OR1G1 clone 1488. Moreover, the figures for the odorant receptor activation (in assay [1]; with OR1J1 clone 1696) were 1.28 and 1.21, respectively.

Take `C=CCSCC=C` [diallyl sulfide]: the odorant receptor activation in the assay with OR14L1 clone 1029 was 1.02; in the assay with OR1A1 P285S clone 1531, 1.25; in the assay with OR1A1 R128H clone 1528 it was 1.42; in the assay on OR1A1 V233M clone 1287, 2.34 and 1.04; in the assay on OR1A1 V233M clone 1530, 1.41; in the assay on OR1A1 clone 1529 it was 1.51. In addition, the odorant receptor activation stood at 1.31 in the assay with OR1A2 clone 1158; 0.949 in the assay on OR1C1 clone 1044; 1.05 with OR1D2 clone 1376; 1.21 with OR1D5 clone 1289; 0.818 in the assay with OR1D5 clone 1692; 0.992 in the assay with OR1E1 clone 1257. In addition, the odorant receptor activation in the assay on OR1E1 clone 1546 worked out at 1.25; in the assay on OR1E2 C27R clone 1447, 1.17; in the assay on OR1E2 clone 1517 it was 1.52; in the assay on OR1F1 F75S clone 1281 it was 1.05; in the assay on OR1F12 clone 1694, 0.637; with OR1G1 clone 1488, 1.01. Also, the odorant receptor activation in [1] stood at 0.969; in the assay with OR1J1 clone 1696, 0.662.

With `COc1ccccc1O` [guaiacol], the odorant receptor activation with OR14L1 clone 1029 is 1.8; with OR1A1 P285S clone 1531 it was 0.627 and 1.31; in the assay on OR1A1 R128H clone 1528 it was 0.807 and 1.24; with OR1A1 V233M clone 1287, 1.49 and 1.25 and 0.956; in the assay on OR1A1 V233M clone 1530, 1.58 and 1.45; with OR1A1 clone 1529, 0.858 and 1.56. Further, the odorant receptor activation was 0.905 in the assay on OR1A2 clone 1158; 0.736 with OR1C1 clone 1044; 1.11 in the assay on OR1D2 clone 1376; 0.876 and 0.906 in the assay with OR1D5 clone 1289; 0.954 in the assay on OR1D5 clone 1692; 1.11 and 0.981 in the assay with OR1E1 clone 1257. For the same compound, the odorant receptor activation in the assay with OR1E1 clone 1546 is 1.13 and 1.4; with OR1E2 C27R clone 1447, 0.845; in the assay with OR1E2 clone 1517, 0.679 and 0.936; with OR1F1 F75S clone 1281, 1.21 and 0.86; in the assay with OR1F12 clone 1694, 0.692; in the assay with OR1G1 clone 1488, 1.03 and 1.42. The odorant receptor activation in assay [1] is 0.781 and 1.25; in the assay on OR1J1 clone 1696 it was 0.764.

With `CC(=O)OC1CC2CCC1(C)C2(C)C` (stereo not given) [isobornyl acetate], the odorant receptor activation in the assay with OR14L1 clone 1029 is 0.961; with OR1A1 P285S clone 1531, 0.764 and 0.919; in the assay with OR1A1 R128H clone 1528, 0.864 and 1.24; in the assay with OR1A1 V233M clone 1287, 1.15 and 0.598 and 0.871; in the assay with OR1A1 V233M clone 1530, 0.984 and 1.35; in the assay with OR1A1 clone 1529, 0.82 and 1.18. Moreover, the odorant receptor activation is 0.843 with OR1A2 clone 1158; 0.63 with OR1C1 clone 1044; 1.12 in the assay on OR1D2 clone 1376; 0.948 and 0.966 with OR1D5 clone 1289; 0.901 with OR1D5 clone 1692; 1.06 in the assay on OR1E1 clone 1257. Further, the odorant receptor activation is 1.02 and 1.06 in the assay with OR1E1 clone 1546; 0.788 with OR1E2 C27R clone 1447; 0.941 and 1.1 with OR1E2 clone 1517; 1.2 and 1 with OR1F1 F75S clone 1281; 1.16 in the assay with OR1F12 clone 1694; 1.14 and 1 with OR1G1 clone 1488. Besides, the odorant receptor activation in assay [1] was determined as 1.1; with OR1J1 clone 1696 it was 1.15.

For the compound `CC12C=CCC1C1CCC3=CC(=O)CCC3(C)C1CC2` (stereo not given) [androstadienone], the odorant receptor activation in the assay on OR14L1 clone 1029 is 2.28; with OR1A1 P285S clone 1531 it was 0.682 and 1.25; in the assay on OR1A1 R128H clone 1528 it was 1.06 and 1.56; in the assay with OR1A1 V233M clone 1287 it was 1.18 and 0.836; with OR1A1 V233M clone 1530, 1.22 and 1.49; with OR1A1 clone 1529 it was 0.794 and 1.6. For the same compound, the odorant receptor activation was 0.807 with OR1A2 clone 1158; 1.73 in the assay with OR1C1 clone 1044; 1.19 with OR1D2 clone 1376; 0.921 and 0.968 with OR1D5 clone 1289; 1.21 and 1.33 in the assay with OR1E1 clone 1257; 1.06 and 1.55 with OR1E1 clone 1546. Also, the odorant receptor activation in the assay with OR1E2 C27R clone 1447 was 1.16; with OR1E2 clone 1517 it was 0.919 and 1.41; in the assay with OR1F1 F75S clone 1281 it was 1.13 and 1.07; with OR1G1 clone 1488, 1.05 and 1.56; in [1], 1.06 and 1.68.

Consider `CC(C)CC(=O)O` [isovaleric acid], for which the odorant receptor activation was 1.51 with OR14L1 clone 1029; 0.943 with OR1A1 P285S clone 1531; 1 with OR1A1 R128H clone 1528; 0.916 in the assay with OR1A1 V233M clone 1530; 0.767 in the assay with OR1A1 clone 1529; 1.32 with OR1A2 clone 1158. In addition, the odorant receptor activation in the assay with OR1C1 clone 1044 is 1.24; with OR1D2 clone 1376, 1.04; with OR1D5 clone 1289, 0.864; with OR1D5 clone 1692, 0.812; with OR1E1 clone 1257, 0.836; with OR1E1 clone 1546 it was 0.749. Further, the odorant receptor activation turned out to be 0.921 in the assay on OR1E2 C27R clone 1447; 0.891 with OR1E2 clone 1517; 0.914 with OR1F1 F75S clone 1281; 1.06 with OR1F12 clone 1694; 1.04 with OR1G1 clone 1488; 0.866 in assay [1]. Moreover, in the assay on OR1J1 clone 1696, the odorant receptor activation turned out to be 0.794.

With `c1ccc(Oc2ccccc2)cc1` [diphenyl ether], the odorant receptor activation in the assay with OR14L1 clone 1029 came to 0.935; in the assay on OR1A1 P285S clone 1531 it was 1.48; with OR1A1 R128H clone 1528, 1.53; in the assay on OR1A1 V233M clone 1530 it was 2.21; with OR1A1 clone 1529, 1.81; in the assay with OR1A2 clone 1158, 0.95. Besides, the odorant receptor activation in the assay on OR1C1 clone 1044 turned out to be 0.939; in the assay on OR1D2 clone 1376, 0.81; in the assay on OR1D5 clone 1289, 1.08; in the assay on OR1D5 clone 1692, 0.791; in the assay on OR1E1 clone 1257 it was 1.07; in the assay on OR1E1 clone 1546 it was 1.41. In addition, the odorant receptor activation in the assay on OR1E2 C27R clone 1447 was found to be 0.879; in the assay with OR1E2 clone 1517 it was 1.33; in the assay on OR1F1 F75S clone 1281 it was 0.897; in the assay on OR1F12 clone 1694 it was 0.687; in the assay on OR1G1 clone 1488, 0.898; in assay [1], 1.05. In the assay with OR1J1 clone 1696, this compound had an odorant receptor activation of 0.687.
